Reference: patent publication US20020122799A1
Results are given in words; binding and its absence hold for the method and conditions named. Some entries that bind do so weakly or less than the wild type.

The chains behind the UniProt entries cited, without tags or fusion partners. Residues count along the entry.
UniProt Q15109, residues 23-342: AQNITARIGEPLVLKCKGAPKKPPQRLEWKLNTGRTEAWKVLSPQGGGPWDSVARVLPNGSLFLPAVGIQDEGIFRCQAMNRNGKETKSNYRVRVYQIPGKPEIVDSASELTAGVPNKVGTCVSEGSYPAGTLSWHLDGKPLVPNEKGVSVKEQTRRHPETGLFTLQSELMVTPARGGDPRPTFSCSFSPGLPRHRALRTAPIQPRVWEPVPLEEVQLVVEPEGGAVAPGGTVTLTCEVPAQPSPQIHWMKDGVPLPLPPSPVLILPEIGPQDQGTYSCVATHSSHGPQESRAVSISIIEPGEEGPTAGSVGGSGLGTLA

Assays:
[1] = molecular target: T1, EN-RAGE (Extracellular Novel RAGE binding protein) (bovine) (UniProt P79105); test: affinity chromatography on immobilized soluble human RAGE and screening of immobilized column fractions with 125-I-labelled sRAGE
T1 sequence (radiolabelled with 125-I (Iodobeads) in the radioligand binding assays, looked up): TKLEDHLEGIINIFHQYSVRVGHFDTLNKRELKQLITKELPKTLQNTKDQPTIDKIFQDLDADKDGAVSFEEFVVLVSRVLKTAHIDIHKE

[2] = molecular target: T1, EN-RAGE (Extracellular Novel RAGE binding protein) (bovine); test: competition: 50-fold molar excess of sRAGE against 125I-EN-RAGE binding to RAGE-bearing CHO cells
[3] = molecular target: T1, EN-RAGE (Extracellular Novel RAGE binding protein) (bovine); test: isolation of RAGE-binding proteins from bovine lung extract
[4] = molecular target: T1, EN-RAGE (Extracellular Novel RAGE binding protein) (bovine); test: competition: sRAGE blocks binding of EN-RAGE to immobilized and cellular RAGE

Measured: binding

soluble human RAGE (sRAGE) (from UniProt Q15109 23-342) (receptor)
binds: [1] | [2] | [3] | [4]
